Laboratory results from US20240229101A1, “METHOD FOR DETECTING INTRACELLULAR ACTIVITY OF CYP ENZYMES” (NATIONAL INSTITUTE OF ADVANCED INDUSTRIAL SCIENCE AND …, priority 2021, published 2024).
For at least one compound, name, drawing or mass did not settle the structure.

Columns and labels:
Format in all cases: cell-based, human
glycogen = experiment: Raman observation of HepaRG hepatocytes, glycogen signal (940 cm^-1)
lipid = experiment: Raman observation of HepaRG hepatocytes, lipid signal (2850 cm^-1); conditions: 4 μM from Day 6, measured on Day 8 (FIG. 25)
phenylalanine = experiment: Raman observation of HepaRG hepatocytes, phenylalanine signal (1000 cm^-1); conditions: 4 μM, 48 hr (FIG. 11)

**Q.** Which results are given for `CO[C@H]1/C=C/O[C@@]2(C)Oc3c(C)c(O)c4c(O)c(c(/C=N/N5CCN(C)CC5)c(O)c4c3C2=O)NC(=O)/C(C)=C\C=C\[C@H](C)[C@H](O)[C@@H](C)[C@@H](O)[C@@H](C)[C@H](OC(C)=O)[C@@H]1C` [Rifampicin]?
**A.** Raman signal indicating glycogen (940 cm^-1), signal intensity (glycogen; HepaRG hepatocytes, 4 μM, 48 hr, compared with non-induced cell group (FIG. 11)): reduces; Raman signal at a wavenumber of 940 cm^-1 derived from glycogen (glycogen; HepaRG, 4 μM from Day 6, measured on Day 8 (FIG. 25)): decreases; Raman signal at a wavenumber of 2850 cm^-1, which indicates lipids (lipid): decreased slightly; Raman signal showing phenylalanine (1000 cm^-1), changes in signal intensity (phenylalanine): could not be confirmed
